Assay results reported in PubChem BioAssay AID1347423 (Functional Genomics Laboratory (NCATS/FGL), 2020).
The campaign covered roughly 52,000 sequences. About 210 (0.4%) were called active.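 The calls were made as follows: active = gene whose silencing raises cell survival under the drug, median off-target-corrected z-score across its silencing RNAs 2 or more; inactive = the rest.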 Some of the results follow.

assay: Resistance to Poly (ADP-Ribose) Polymerase inhibitor: Gene Identification via Genome-wide siRNA Screen; settings: mouse BRCA2 R2336H ES cells, olaparib, CellTiter-Glo viability; stronger effect = higher value
Summary of the method: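 Mouse BRCA2 R2336H ES cells were reverse-transfected with siRNA (20 nM final), treated at 48 h with 500 nM olaparib, and read by CellTiter-Glo after 72 h. Scores: MAD-based z per siRNA, median per gene, seed off-target correction.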

Sequence | z-score
GGCUGAAUCACCAGAACAUTT against Ikbke | inactive: -1
GGUUCUGUCUAUUCUGCACTT against Slco4a1 | inactive: 2.28
CGGUGAUAACAGACAUUAATT against Aldh8a1 | inactive: -1.22
CCAGAAACUCGCAUAUCACTT against 4732495E13Rik | inactive: 0.552
GCUAAAGGACCUGAAAUGGTT against Gas8 | inactive: 0.817
GCAGGACAUCUAAAUCUCUTT against Fgfbp1 | inactive: 0.215
GCAGUUAAUGCCAACAGUCTT against Ep400 | inactive: -1.22
GCAGAACACCGCUGGAAGUTT against Pard3 | inactive: 1.66
GGGUUGUAGAUGCGUGGAATT against BC042549 | inactive: 0.822
GGACGUGUACAUUGUCAAGTT against Unc5a | inactive: 1.24
GGAUGUCUGACACAAGUGUTT against Olfr390 | inactive: -2.8
CGUAGCAACUUGUUUCUCUTT against AK122525 | inactive: 3.77
GUUCAUCCCGUAUCACCACTT against Cox6a2 | inactive: 1.66
GCAAAUCGAGGACAGAAUUTT against Kiaa0298-hp | inactive: -0.177
GGAUCAGUGGACAAAAUAUTT against Uqcrb | inactive: -2.14
GGAAGCUCUUCAACUCUACTT against Vps4b | inactive: 0.791
GGACUGCAUUCCUCUGAUCTT against B930018B01 | inactive: -0.49
GGAUGUUCCAUAUUAUACCTT against Adamdec1 | inactive: -0.236
GGACAAAGAUGAAAUCCGATT against Btbd3 | inactive: -0.0353
GCCAAAUAAUCUGAAAGCCTT against Rpl28 | inactive: 0.739
GGACAAUAGAUCGUCACUUTT against AV249152 | inactive: -0.91
GGAAAUGAUCGAAAUGGCCTT against Pou2f3 | inactive: 0.949
GGAAGAGCAGCAGAUGAAATT against Prodh | inactive: -0.297
CCUAUACACCCAUUUUUAATT against Arl2bp | inactive: 0.324
GCAGACAGUAAAUUGGUAATT against BC037703 | inactive: -1.02
CGCCAGAUGGACUUCAUCATT against Slc6a8 | inactive: -0.0271
GGUCUAUGCCAGUUUUGCATT against Tegt | inactive: 0.645
CGAUGUAAAGAGCUGGUAGTT against Zdhhc13 | inactive: 0.68
UGAUAGUCUCCACUAAAUUTT against 4930549O06 | inactive: 0.0181

A different layout for part of the listing above.
Sequence,z-score
GGUUCUGUCUAUUCUGCACTT against Slco4a1,inactive: 2.28
CGGUGAUAACAGACAUUAATT against Aldh8a1,inactive: -1.22
